# In article PMC1414084:
# These are yes or no findings as the source states them, for the method shown. Some results given as binding are weak or reduced against the parent protein; the word gives no strength.
# B1: PH0073, hypothetical protein (paralog to PH0074) (protein, UniProt O57790 1-195)
# chain: MATMARWERIVEGVKSIALIKRKIISRGKRIALLVDGPNILRKELGVHLEDIVEALSSLGNIRVAKVILNQYAPQSLIEAVSNQGFEPVIVAGEIGVKLAVEAMREVYNPNIDIIALATRNTEFVPIILKAKEKGKETAIIGVEPGFSSALKHAADYVIVLESRGELSEEGNIEDIEEGKGEGGRGRRKNDRLDN
# B2: PH1025, hypothetical protein (protein, UniProt O58772 1-236)
# chain: MQTQQERISTGVKGLDELIEGGLIPGRVYLITGPPGSGKTTFGMQFLLEGARRGEKVAYISLIHKPEEVVRDMVRFDPSVYVYVNNWRLILYDLGPILWRESTKVPTWRSVLSRIREITENEKITRLVIDPLTAIDFPLQDPVEKRVELAKFVRSLENLGVTTYLIAEMVELDKYSEEHYLVSGIIMLHYFMHEGRMIRAIQIFKMRGTKHDPNLKLLKFTDQGLVVYNKSPFEVV
# B3: PH1355, SNZ like protein (protein, UniProt O59080 1-335)
# chain: MDKLKIIMEKGTERLKRGFAKMVKGGVIMDVTNAEQARIAEEAGAVAVMALHKVPADIRKAGGVARMAPVEKIQEIMDAVTIPVMAKCRIGHEAEARILEALGVDMIDESEVLTPADPFFHIYKKKFTAPFVCGARNLGEAVRRIWEGAAMIRTKGEAGTGNIIEAVRHVRLVNENIRLIQRMTDEEIYGVAEKFAEPYLRLAFSVKEISGLPKRVLENEPIYEGFTYREIVEDIYKILLEIKKLGRLPVVNFAAGGVATPADAALMMAMGMDGVFVGSGIFKSSNPPKMARAIVEAVNHWDEPDVLAEISREIGEPMRGQAIEELQVRMEERGI
# B4: PH0812, hypothetical protein (paralog to PH0813) (protein, UniProt O58542 1-381)
# chain: MLVIKGVKAYTMSNIGVVEKANIIVKDGKIVDVTQELPPLEGKTVVDGEGLIALPGLIDPHTHLGVYSLEWEYGDHGTEKSDPITPHFKVIDGLDIFDPGFKDAIAGGVTTVSVEPGAPLSWASYEKTTIMPGQSAILKTNGRIIKEEAGIKIAVGGHVRKFLEELKLTPTTRMGIFAMIRMILHKAKEYLEKEDKQYDPKLEALATLLKNETVARVHAHLSRDMLSIIRLLKEFDIKNIIIEHGTEAYKISDVLKENGIPVILGPVIFPRRGVELRELSSKLAFQLYNSGMMFALTTDHPALPIQYLTLVAAACVGEGLPYEEALKSITINPAKILGIDRFVGSLEPGKDADIVLFDGDPLNPESKVMYTIIDGEVVYER
# B5: PH0353, hypothetical protein (protein, UniProt O58091 1-134)
# chain: MKLKGKGIGKVVVEGEVIVSRKPLSFLGGVDPETGTITDPESDIKGESITGKILVFPKGKGSTVGSYILYALSKNGKGPKAIIVEEAEPIVTAGAIISGIPLITNVDISKLKTGMRVRINPQEGEVEILAEGNL
# B6: PH0402, hypothetical protein (protein, UniProt O58139 1-140)
# chain: MGMFKRREYERWIVEAKRTLSSAYSDLKEGYYEWASFKAQQAAELAVKAILRGLGFAPIGHSITRLLKDLSGSLNLDIPREILYFAMELDRNYIAPRYPDAYPEGSPFEYYSEDIAKELVKYAEKIIKFVEVVVDELQAT
# B7: PH0468, hypothetical protein (protein, UniProt O58207 1-108)
# chain: MMAVENAVDYPISVRLPSYVVEKIDELVKKRKFRSRSDFIKFAVTFALGQIMMEEARERAKNEPEELEKERKEAWMRLRAGDFSKEDEETLELLKKVDARYKRLGGRS
# B8: PHS014, hypothetical protein (protein, UniProt O73967 1-67)
# chain: MRMEKVGDVLKELERLKVEIQRLEAMLMPEERDEDITEEEIAELLELARDEDPENWIDAEELPEPED
# How the values were obtained:
# Test in all cases: two-hybrid; mammalian two-hybrid; bait fused to the Gal4 DNA-binding domain (BIND), prey to the VP16 transcriptional activation domain (ACT); luciferase reporter; cultured mammalian cells, 37°C; positive from 3 times the background activity (level 1), the selected set is level 2 (>=5 to <10 times) and level 3 (>=10 times)
# [1] = target: PH0073, hypothetical protein (paralog to PH0074) (Pyrococcus horikoshii OT3) (UniProt O57790)
# [2] = target: T1, PH0074, hypothetical protein (paralog to PH0073) (Pyrococcus horikoshii OT3) (UniProt O57789)
# T1 sequence: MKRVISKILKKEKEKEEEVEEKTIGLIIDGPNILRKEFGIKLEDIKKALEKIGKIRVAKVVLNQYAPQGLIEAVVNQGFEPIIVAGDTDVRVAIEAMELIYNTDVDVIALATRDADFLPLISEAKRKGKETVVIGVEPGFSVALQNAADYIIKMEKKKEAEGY
# [3] = target: PH1025, hypothetical protein (Pyrococcus horikoshii OT3) (UniProt O58772)
# [4] = target: T2, PH1024, hypothetical protein (Pyrococcus horikoshii OT3) (UniProt O58773)
# T2 sequence: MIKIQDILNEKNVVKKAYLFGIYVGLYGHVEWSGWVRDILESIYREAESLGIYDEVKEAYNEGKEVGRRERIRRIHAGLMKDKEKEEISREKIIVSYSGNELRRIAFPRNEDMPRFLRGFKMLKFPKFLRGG
# [5] = target: T3, PH1354, SNO like protein (Pyrococcus horikoshii OT3) (UniProt O59079)
# T3 sequence: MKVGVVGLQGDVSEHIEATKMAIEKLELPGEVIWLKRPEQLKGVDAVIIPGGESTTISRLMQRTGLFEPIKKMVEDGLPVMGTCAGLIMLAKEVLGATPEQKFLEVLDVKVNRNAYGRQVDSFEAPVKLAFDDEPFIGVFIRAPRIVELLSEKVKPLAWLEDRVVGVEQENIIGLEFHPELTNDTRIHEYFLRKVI
# [6] = target: PH1355, SNZ like protein (Pyrococcus horikoshii OT3) (UniProt O59080)
# [7] = target: T4, PH0813, hypothetical protein (paralog to PH0812) (Pyrococcus horikoshii OT3) (UniProt O58543)
# T4 sequence: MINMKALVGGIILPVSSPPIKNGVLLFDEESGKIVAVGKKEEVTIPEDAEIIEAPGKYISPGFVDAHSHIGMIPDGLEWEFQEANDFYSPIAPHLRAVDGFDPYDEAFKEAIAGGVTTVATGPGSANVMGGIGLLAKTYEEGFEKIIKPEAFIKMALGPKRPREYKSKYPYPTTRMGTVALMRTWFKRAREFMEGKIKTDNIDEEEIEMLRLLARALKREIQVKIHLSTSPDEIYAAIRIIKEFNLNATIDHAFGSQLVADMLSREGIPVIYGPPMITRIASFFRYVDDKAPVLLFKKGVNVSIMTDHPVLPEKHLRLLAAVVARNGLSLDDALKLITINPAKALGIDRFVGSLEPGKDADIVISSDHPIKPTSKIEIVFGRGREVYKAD
# [8] = target: T5, PH0354, hypothetical protein (Pyrococcus horikoshii OT3) (UniProt O58092)
# T5 sequence: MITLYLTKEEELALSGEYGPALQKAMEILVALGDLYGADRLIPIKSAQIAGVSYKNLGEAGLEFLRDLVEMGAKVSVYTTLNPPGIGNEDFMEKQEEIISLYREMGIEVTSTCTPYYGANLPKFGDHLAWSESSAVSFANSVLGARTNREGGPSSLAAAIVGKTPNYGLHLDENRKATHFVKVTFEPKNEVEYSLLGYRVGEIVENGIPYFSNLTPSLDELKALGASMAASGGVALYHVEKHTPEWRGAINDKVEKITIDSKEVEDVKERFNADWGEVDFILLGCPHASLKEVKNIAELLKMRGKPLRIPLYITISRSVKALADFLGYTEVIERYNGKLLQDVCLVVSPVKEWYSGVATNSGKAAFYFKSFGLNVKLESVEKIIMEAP
# [9] = target: T6, PH0403, hypothetical protein (Pyrococcus horikoshii OT3) (UniProt O58140)
# T6 sequence: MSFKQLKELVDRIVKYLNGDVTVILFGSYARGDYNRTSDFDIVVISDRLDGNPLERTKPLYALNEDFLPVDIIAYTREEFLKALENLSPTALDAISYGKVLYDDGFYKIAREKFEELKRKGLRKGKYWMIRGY
# [10] = target: T7, PH0469, hypothetical protein (Pyrococcus horikoshii OT3) (UniProt O58206)
# T7 sequence: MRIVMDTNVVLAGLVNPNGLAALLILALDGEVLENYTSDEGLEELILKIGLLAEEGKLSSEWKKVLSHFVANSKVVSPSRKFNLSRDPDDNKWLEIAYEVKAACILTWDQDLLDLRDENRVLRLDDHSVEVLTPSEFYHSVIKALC
# [11] = target: T8, PHS013, hypothetical protein (Pyrococcus horikoshii OT3) (UniProt O73966)
# T8 sequence: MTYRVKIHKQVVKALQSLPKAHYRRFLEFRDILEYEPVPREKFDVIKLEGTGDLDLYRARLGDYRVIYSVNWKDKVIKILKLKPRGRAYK
binder,measurement,setting,value
B1,binding,[1],binds
same,binding,[2],binds
B2,binding,[3],binds
same,binding,[4],binds
B3,binding,[5],binds
same,binding,[6],binds
B4,binding,[7],binds
B5,binding,[8],binds
B6,binding,[9],binds
B7,binding,[10],binds
B8,binding,[11],binds
